Results from article PMC8859912.
Results are given in words; binding and its absence hold for the method and conditions named. In cells and extracts the contact can be indirect. Binding calls can cover weak binding; strength is not graded here. Tags and fused reporters may be left off the sequences shown.

The chains behind the UniProt entries cited, without tags or fusion partners. Where a name states a change or a piece, a line headed by the entry shows the natural chain unless it says otherwise.
UniProt Q80VM7: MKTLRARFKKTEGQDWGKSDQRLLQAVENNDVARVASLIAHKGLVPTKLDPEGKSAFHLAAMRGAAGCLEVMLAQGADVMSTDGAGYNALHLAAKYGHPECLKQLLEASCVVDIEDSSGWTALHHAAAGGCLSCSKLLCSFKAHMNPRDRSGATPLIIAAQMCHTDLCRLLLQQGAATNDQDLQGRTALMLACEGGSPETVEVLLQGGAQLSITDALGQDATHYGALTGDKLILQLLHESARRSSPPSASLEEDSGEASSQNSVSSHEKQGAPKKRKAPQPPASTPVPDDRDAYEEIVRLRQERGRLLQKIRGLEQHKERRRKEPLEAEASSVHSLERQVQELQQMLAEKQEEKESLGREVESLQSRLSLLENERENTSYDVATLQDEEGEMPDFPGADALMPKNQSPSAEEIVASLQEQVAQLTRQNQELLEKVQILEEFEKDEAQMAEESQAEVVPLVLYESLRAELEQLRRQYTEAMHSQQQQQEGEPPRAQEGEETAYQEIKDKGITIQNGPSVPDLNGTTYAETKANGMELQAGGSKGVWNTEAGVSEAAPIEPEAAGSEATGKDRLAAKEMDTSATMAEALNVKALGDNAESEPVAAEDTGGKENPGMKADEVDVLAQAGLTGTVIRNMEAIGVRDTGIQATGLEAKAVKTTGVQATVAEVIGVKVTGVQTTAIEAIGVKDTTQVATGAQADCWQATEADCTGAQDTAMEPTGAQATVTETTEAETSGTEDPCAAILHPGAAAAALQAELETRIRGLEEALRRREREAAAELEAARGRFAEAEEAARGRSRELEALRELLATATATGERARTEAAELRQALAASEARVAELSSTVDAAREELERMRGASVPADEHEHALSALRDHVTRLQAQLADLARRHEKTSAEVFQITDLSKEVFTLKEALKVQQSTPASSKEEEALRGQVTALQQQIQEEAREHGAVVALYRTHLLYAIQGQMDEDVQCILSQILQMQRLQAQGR

Target: ANKRD24 ΔAla-HA (mouse) (UniProt Q80VM7)
Assay: co-IP; HEK293 cells transfected with both constructs; lysis in 50 mM Hepes, 150 mM NaCl, 1% Triton X-100, 1 mM EDTA, protease inhibitors; immunoprecipitation with anti-HA agarose beads; immunoblot

binding: binds
B1: GFP–TRIOBP-1 (protein, UniProt Q99KW3-1 1-580)
chain: MTPDLLNFKKGWMSILDEPGEWKKHWFVLTDSSLKYYRDSTAEEADELDGEIDLRSCTDVTEYAVQRNYGFQIHTKDAVYTLSAMTSGIRRNWIEALRKTVRPTSAPDVTKLSDCNKENTLHGYGTQKSSLKIGEQRTGSEVIGRGGPRKADGPRPSLDYVELSPLAPSSPQRMRTLSRSTPERPTKQEDLERDLAQRSEERRKWFESTDGRTPETPSGDGSRRGLGAPLTDDQQSRLSEEIEKKWQELEKLPLRENKRVPLTALLNQAHNDRRGPTSDSHEALEKEVQSLRAQLEAWRLRGEAPQNAPRLQEDSHIPPGYISQEACERSLAEMESSHQQVMEQLQRHHERELQRLQQEKEWLLAEETAATASAIEAMKKAYQEELSRELSKTRSLQQGPESLRKQHQLDMEALKQELQVLSERYSQKCLEIGALTRQAEEREHTLRRCQQEGQELLRHNQELHSHLSEEIDRLRSFIASQGTGNSCGRSNERSSCELEVLLRVKENELQYLKKEVQCLRDELQVIQKDKRFTGKYQDVYVELNHIKTRSEREIEQLKEHLRLAMAALQEKEAVRNSLAE
